Data from the RNAGym collection of RNA variant scans (doi:10.1126/science.aae0568).
Variants at the floor of the assay are shown more often than the library holds them.

B1: tRNA (parent)
chain: GUUCCGUUGGCGUAAUGGUAACGCGUCUCCCUCCUAAGGAGAAGACUGCGGGUUCGAGUCCCGUACGGAACG

Variants of: B1
Assay: yeast fitness relative to wild type (ratio to wild type); higher = fitter; tRNA-Arg(CCU), competitive growth, 37 C, YPD
Outline: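 A pool of Saccharomyces cerevisiae strains, each with a tRNA-Arg(CCU) gene variant at the native genomic locus, was competed in YPD at 37°C for 24 hours across six parallel replicates. The variants had been chemically synthesised at a 3% per-site mutation rate over 69 sites, and gene amplicons before and after competition were read by 100-nucleotide paired-end sequencing. Darwinian fitness relative to wild type rested on changes in genotype frequencies. Genotypes required ≥ 100 starting reads, and estimates < 0.5 were set to 0.5.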

Row | Variant | yeast fitness
1 | GUUCCGUUGGCGUAAUGGUAACGCGUCUCCCUCCUAAGGAGCAGACCGCGGGUUCGAGUCCCAUACGGAACG [A42C U47C G63A] | 0.692
2 | GUUCCGCUGGCGUAAUGGUAACGCGUCUCACUCCUAAGGAGAAGACUGCGGGUUCGAGUACCGUACGGAACG [U7C C30A C60A] | ≤ 0.5
3 | GUUCCGUUGGCGUAAUGGUAACGCGUCUCCCUCCUACGGCGAAGACUGCGGGUUCGCGUCCCGUACGGAACG [A37C A40C A57C] | ≤ 0.5
4 | GUUCCGUUGGCGUAAUGGUAACCCGUCUCCCUCCUAAGGAGUAGACUGCGGGUUCGUCUCCCGUACGGAACG [G23C A42U A57U G58C] | ≤ 0.5
5 | GUUCCGUUGGCGUAAUGGUAACGCGUCUCCCUCCUAAGGAGAAGACUACGGGUGCGAGUCCCGUACGGAACG [G48A U54G] | 0.686
6 | GUUCCGUUGGCGUAAUGGUAACGCGUCUCCCUCCUAAGGAGAAGACAGCGAGUUUGAGUCCCGUACGGAACG [U47A G51A C55U] | 0.642
7 | GUUCCGUUGGCGUAAUGGUAACGCGUCUCCCUCCUAAGGAACAGACUGCGGGUUCGAGUCCCGUACGGAACG [G41A A42C] | 0.726
8 | GUUCCGUUGGCGUACUGGUAACGCGUCUCCCUCCUAAGGAGAAGACUGGGGGUUCGAGUCCUGUACGGAACG [A15C C49G C62U] | 0.636
9 | GUUCCGUUGGCGUCAUGGUAACGCGUCUCCCUCCUAAGGAGAAAACUGCGGGUCCCAGUCCCGUACGGAACG [A14C G44A U54C G56C] | ≤ 0.5
10 | GUUCCGUUGGCGUAAUGGUACCGCGUCUCCCUCCCAUGGAGAAGACUGCGGGUUCGAGUCCCGUACGGAACG [A21C U35C A37U] | ≤ 0.5
11 | GUUCCCUUGGCGUAAUAGUAACGCGUCUACCUCGUAAGGAGAAGACUGCGGGUUAGAGUCCCGUACGGAACG [G6C G17A C29A C34G C55A] | ≤ 0.5
12 | GUUCUGUUGGCGUAAUGGUAACGCGUCUCCUUCUUAAGGAGAAGACUGCGGGUUCGAGUCCCGUACGGAACG [C5U C31U C34U] | ≤ 0.5
13 | GUUACGUUGCCGUAAUGGUAACGCGUCUGCCUCCUAAGGAGAAGACUGCGGGUUCGAGUCCCGUACGGAACG [C4A G10C C29G] | ≤ 0.5
14 | GUUCGGUUGGCGUAAUGGUCACGCGUCUCCCUCCUAAGGAAAAGACUGCGGGUUCGAGUCCCGUACGGUACG [C5G A20C G41A A69U] | ≤ 0.5
15 | GUUGCGUUGGCGUAAUGGUAACGCGUCUCCCUCAUUAGGAGAAGACUGCGGGUUGGAGUCCCGUAAGGAACG [C4G C34A A36U C55G C66A] | ≤ 0.5
16 | GUUCCGUUGGCAAGAUGGUAGCGCGUCUCCCUUCUAAGGAGAAGACUGCGGGUUCGAGUCCCGUACGGAACG [G12A U13A A14G A21G C33U] | ≤ 0.5
17 | GUUCCGUUGGCGUAAUGGUAACGCGUCUCCCUCAUAAGGAGAGGACUGCGGGUUCGAGUCCCGUACGGCACG [C34A A43G A69C] | ≤ 0.5
18 | GUUCCGUUGGAGUAAUGGUAACGCCUCUCCCUCCUAAAGAGAAGACUGCGGGUUCGAGUCCCGUACGGAACG [C11A G25C G38A] | ≤ 0.5
19 | GUUCCGUUGGCAUAAUGGUAACGGGUCUCCCUCCUAAGGCGGCGAUUGCGGGUUCGAGUCCCGUACGCUACG [G12A C24G A40C A42G A43C C46U G68C A69U] | ≤ 0.5

Row | Variant | yeast fitness
20 | GUUCCGUCGGCGUAAUGGUAACGCGUCUCCCUCCUAAGGAAAAGACUGCGGGUUCGAGUCCCGUGCGGAACG [U8C G41A A65G] | 0.63
21 | GUUCCGUUGGCGUAAUGGUAACGCGUCUCCGUCCUAAGGGGAAGACUGCGGCUUCGAGUCCCGUACGGAACG [C31G A40G G52C] | ≤ 0.5
22 | GUUCCGUUGGCGUCAAGGUAACGCGUCUCCCUCCUAAGGACAAGACUGCGGGUUCAAGUCCCGUACGGAACG [A14C U16A G41C G56A] | ≤ 0.5
23 | GUUCCGUUGGCGUAAUGGUAAUGCGUCUCCCUCCCCAGGAGAAGACUGCGGGUUCGAGUCCCGUACGGAACG [C22U U35C A36C] | ≤ 0.5
24 | GGUCCGUUCGCAUAAUGGUAACGCGUCUCCCCCCUAAGGAGCAGAAUGCGGGUUCGAGUCCCGUUCGGAACG [U2G G9C G12A U32C A42C C46A A65U] | ≤ 0.5
25 | GAUCCGUUGGCGUAAUGAUAACGCGUCUCCCUCCUAACGAGAAGACUGCGGGUUCGAGUCCCGGACGGACCG [U2A G18A G38C U64G A70C] | ≤ 0.5
26 | GUUCGGUUGGCGUAAUGGUAACGCGUCUGCCUCCUAAGGAGAAGACUGCGGGUUUGAGGCCCGUACGGAACG [C5G C29G C55U U59G] | ≤ 0.5
27 | GUUCCGUUGGCGUAAUGGUAAGGCGUCUCCCUCCUAAGGAGCAGACUGCGGAUUCGAGUCCUGUACGGAACG [C22G A42C G52A C62U] | ≤ 0.5
28 | GUCCCGUUGGCGUAAUGGUGACGCGUCUCCCUUCUAAGGGGAAGACUGCGGGUUCGAGUCCGGUACGGAUCG [U3C A20G C33U A40G C62G A70U] | ≤ 0.5
29 | GUACCGUGGGCGUAAUGGUAACGCGUGUCCCUCCUAAGGAGAAGACUGCGGGUUCGAGUCCCGUACGGAACG [U3A U8G C27G] | ≤ 0.5
30 | GUUCCGUUGGAGUAAUGGUAAUGCGGUUCCCUCCUAAGGUGAAGACUCCGGGUUCGAGUCCCGUACGGAACG [C11A C22U U26G C27U A40U G48C] | ≤ 0.5
31 | GUUCCGUUGGCGUAAUGGUAAGGCGUCUCCCUCCUAAGGAGAACACUGAGGGUUCGAGUCCCGUACGGAACG [C22G G44C C49A] | ≤ 0.5
32 | GUUCCGUUGGCGUAAUAGUAACGCGUGUCCCUCCUAAGGAGAAGACUGCGGGUUUGAGUCCCGUACGUAACG [G17A C27G C55U G68U] | ≤ 0.5
33 | GUACGGUUGGCGGAAUGGUAACGCGUCUCCCUCCUAAGCAGAAGACUGCGGGUUCGAGUCCCGUACGGACCG [U3A C5G U13G G39C A70C] | ≤ 0.5
34 | GUUCCGUUGGCGUAAUGGUAAUGCGUCUCCCUCGUUAGGAGAAGACUGCGGGUUCGAGUCCCGUACGGAGCG [C22U C34G A36U A70G] | ≤ 0.5
35 | GUUUCGUUGGCGUAAUGAUACCGCGUCUCCCUCCUAAGGAGACGACUACGGAUUCGAGUCCCAUACGGAACG [C4U G18A A21C A43C G48A G52A G63A] | ≤ 0.5
36 | GUUCCGUUGGCGUAAUGGUUACGCGUCUCCGUCCUAAGGAGAAGUGUGCGGGUUCGAAUCCCGUACGGAACG [A20U C31G A45U C46G G58A] | ≤ 0.5
37 | GUUCCGUUGGUGUUAUGGUAACGCGUCUUCCUCCUAAGGAGAAGACUGCGGGUUCGAGUCCCGUACGGAGCG [C11U A14U C29U A70G] | ≤ 0.5
